Measurements taken from publication PMC5052235.
Results are given in words; binding and its absence hold for the method and conditions named. Binding can be weak; no strength is given.

The chains behind the UniProt entries cited, without tags or fusion partners. Where a name states a change or a piece, a line headed by the entry shows the natural chain unless it says otherwise.
UniProt P21707: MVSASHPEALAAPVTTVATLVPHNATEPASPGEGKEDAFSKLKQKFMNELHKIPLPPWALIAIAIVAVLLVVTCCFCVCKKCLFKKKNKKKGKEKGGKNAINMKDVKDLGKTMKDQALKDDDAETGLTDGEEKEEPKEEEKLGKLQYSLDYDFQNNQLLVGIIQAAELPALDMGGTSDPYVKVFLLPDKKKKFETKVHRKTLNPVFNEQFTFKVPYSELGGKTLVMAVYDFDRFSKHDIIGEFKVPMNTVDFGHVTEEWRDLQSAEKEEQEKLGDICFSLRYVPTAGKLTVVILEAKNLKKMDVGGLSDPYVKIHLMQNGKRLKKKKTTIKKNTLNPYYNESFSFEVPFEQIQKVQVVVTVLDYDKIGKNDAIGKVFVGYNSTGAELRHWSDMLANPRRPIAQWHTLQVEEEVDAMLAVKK

Biological target: GST-Syt I-C2AB (the cytoplasmic C2 domains of synaptotagmin I) (UniProt P21707)
Assay: pull-down; Glutathione-Sepharose bead-bound GST-Syt I-C2AB as bait, incubated with recombinant Rab3A overnight at 4 °C in HNa buffer (10 mM Hepes-NaOH, 150 mM NaCl, pH 7.4) with 0.5 % Triton X-100; blot with the anti-Rab3A polyclonal antibody and anti-GST; both purified

B1: recombinant Rab3A protein (protein, UniProt P63012 1-220)
chain: MASATDSRYGQKESSDQNFDYMFKILIIGNSSVGKTSFLFRYADDSFTPAFVSTVGIDFKVKTIYRNDKRIKLQIWDTAGQERYRTITTAYYRGAMGFILMYDITNEESFNAVQDWSTQIKTYSWDNAQVLLVGNKCDMEDERVVSSERGRQLADHLGFEFFEASAKDNINVKQTFERLVDVICEKMSESLDTADPAVTGAKQGPQLTDQQAPPHQDCAC
binding: binds
